For at least one compound, name, drawing or mass did not settle the structure.
Experiment: Elution test, paddle method of the Japanese Pharmacopoeia (elution rate by HPLC)
Format: physicochemical
Conditions: 37±0.5° C., 75 rpm; for Elution rate (%) 10 min: 10 min after addition; for Elution rate (%) 60 min: 60 min after addition; for Elution rate (%) 120 min: 120 min after addition
Procedure: The elution test was performed according to the paddle method in the Japanese Pharmacopoeia the 17th edition. Specifically, the test solution was set to 900 mL of the elution test solution No. 1 of the Japanese Pharmacopoeia, the temperature was set to 37±0.5° C., the rotation speed was set to 75 rpm, the sample to be tested was loaded, and then about 1 mL was sampled at regular intervals, filtered through a syringe filter, and then subjected to HPLC analysis to determine the peak area of the active pharmaceutical ingredient. The obtained area was compared to the peak area of the active pharmaceutical ingredient at the elution rate of 100% to calculate the elution rate (%).
The elution rate is a value obtained by performing HPLC analysis with 200 mg of an IBP crystal all dissolved in 900 mL of the test solution, taking the obtained area as the elution rate of 100%, adding the active pharmaceutical ingredient or the active pharmaceutical ingredient carrier to the eluate, then performing sampling overtime, performing filtering and HPLC analysis to calculate the area, and comparing the area to the value of the elution rate of 100%.
An active pharmaceutical ingredient carrier (corresponding to 200 mg of an active pharmaceutical ingredient) (0.66 g) was weighed, and subjected to the elution test according to the paddle method in the Japanese Pharmacopoeia elution test method using the elution test solution No. 1 (pH 1.2). The temperature of the test solution was 37±0.5° C., and the rotation speed was 75 rpm. Sampling was performed at 5 minutes, 10 minutes, 15 minutes, 30 minutes, and then once every 15 minutes until 120 minutes after addition of the active pharmaceutical ingredient carrier, the obtained sample was immediately filtered using a syringe filter, and the elution rate (%) was calculated as described above from the peak area of the active pharmaceutical ingredient by high performance liquid chromatography (HPLC) with a UV detector.
The elution test of an IBP crystal was performed in the same manner as described above except that an ibuprofen active pharmaceutical ingredient (IBP crystals) was used instead of the active pharmaceutical ingredient carrier.
In the same manner as in the elution test, the elution test of the obtained active pharmaceutical ingredient carrier or the ezetimibe active ingredient (an ETB crystal) was performed. This test was performed using the elution test solution No. 1 (pH 1.2) same as that described above and the elution test solution No. 2 (pH 6.8).
In the same manner as described above, the elution test of the obtained active pharmaceutical ingredient carrier or the celecoxib active ingredient (a CXB crystal) was performed using the elution test solution No. 1 (pH 1.2) or the elution test solution No. 2 (pH 6.8).
In the same manner as described above, the elution test of the obtained active pharmaceutical ingredient carrier or the azilsartan active ingredient (an AZL crystal) was performed using the elution test solution No. 1 (pH 1.2).

[1] = elution test solution No. 1 (pH 1.2), 900 mL
[2] = elution test solution No. 2 (pH 6.8)

Cc1ccc(-c2cc(C(F)(F)F)nn2-c2ccc(S(N)(=O)=O)cc2)cc1 [CXB crystal, celecoxib]
Elution rate (%) 10 min [1]: 0.035%
Elution rate (%) 60 min [1]: 0.28%
Elution rate (%) 120 min [1]: 0.79%
Elution rate (%) 10 min [2]: 0.042%
Elution rate (%) 60 min [2]: 0.51%
Elution rate (%) 120 min [2]: 0.84%

Source: patent publication US11246931B2, “Active pharmaceutical ingredient carrier and production method of the same” (Tokuyama Corporation, priority 2017, dated 2022)
